The reference is the same well before dosing, and untreated signal decays as well.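 Fibroblast labels denote human fibroblasts, mainly primary ones from uterus (C12385, HUF), lung (H6013), bone (Hs27A), adrenal (HADF) and skin (WS1), plus mammary HMF and breast cancer-associated Hs343T. Cancer cells are basal-like or mesenchymal-like triple-negative breast cancer lines. A hit is a response shift exceeding 3x replicate standard deviation. The tissue of the other fibroblasts is not given here.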
Test system: MDAMB231
Test: relative JC-1 red fluorescence (viability) vs pre-drug, coculture with fibroblast (fraction); higher = more viable cancer cells
Protocol: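 JC-1 labelled TNBC cells cocultured 1:1 (1,500 cells each) with CellTrace Violet stained primary or stromal fibroblasts in 384-well plates in FluoroBrite medium, treated with one of 42 anticancer drugs at 0.1, 1, 10 or 100 uM. JC-1 red fluorescence (mitochondrial integrity in cancer cells only) was read by plate reader every 8 h for 72 h. Values are normalised to each well's pre-drug value. The stock of one drug was tenfold lower, so its dose labels may be too high.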

O=C(CCCCCCC(=O)Nc1ccccc1)NO [Vorinostat]
relative JC-1 red fluorescence
Conditions | 8 h | 16 h | 24 h | 32 h | 40 h | 48 h | 56 h | 64 h | 72 h
10 µM, coculture fibroblast: C12385 | 0.7646 | 0.718 | 0.611 | 0.635 | 0.562 | 0.525 | 0.481 | 0.469 | 0.459
10 µM, coculture fibroblast: H6013 | 0.8671 | 0.7941 | 0.75 | 0.702 | 0.628 | 0.61 | 0.591 | 0.578 | 0.55
10 µM, coculture fibroblast: H6019 | 0.735 | 0.655 | 0.639 | 0.594 | 0.5792 | 0.5991 | 0.598 | 0.6462 | 0.6542
10 µM, coculture fibroblast: H6076 | 0.897 | 0.806 | 0.766 | 0.743 | 0.708 | 0.682 | 0.664 | 0.653 | 0.649
10 µM, coculture fibroblast: H6231 | 0.9068 | 0.81 | 0.745 | 0.701 | 0.649 | 0.617 | 0.589 | 0.582 | 0.562
10 µM, coculture fibroblast: HADF | 0.889 | 0.83 | 0.782 | 0.726 | 0.664 | 0.611 | 0.585 | 0.56 | 0.505
10 µM, coculture fibroblast: HCFa | 0.865 | 0.7897 | 0.734 | 0.663 | 0.572 | 0.511 | 0.464 | 0.432 | 0.396
10 µM, coculture fibroblast: HCPF | 0.8703 | 0.753 | 0.6904 | 0.658 | 0.6078 | 0.5753 | 0.525 | 0.502 | 0.489
10 µM, coculture fibroblast: HHSteC | 0.8709 | 0.809 | 0.753 | 0.696 | 0.634 | 0.602 | 0.554 | 0.543 | 0.503
10 µM, coculture fibroblast: HMF | 0.871 | 0.75 | 0.689 | 0.651 | 0.599 | 0.556 | 0.512 | 0.498 | 0.48
10 µM, coculture fibroblast: HPFa | 0.9351 | 0.8633 | 0.81372 | 0.75 | 0.707 | 0.6702 | 0.6273 | 0.61238 | 0.584
10 µM, coculture fibroblast: HUF | 0.82 | 0.671 | 0.6884 | 0.58 | 0.535 | 0.5302 | 0.5073 | 0.5196 | 0.5152
10 µM, coculture fibroblast: Hs5 | 0.878 | 0.803 | 0.75 | 0.714 | 0.676 | 0.621 | 0.581 | 0.552 | 0.545
10 µM, coculture fibroblast: Hs27A | 0.8912 | 0.8152 | 0.784 | 0.766 | 0.71 | 0.651 | 0.6725 | 0.661 | 0.6234
10 µM, coculture fibroblast: Hs343T | 0.916 | 0.806 | 0.734 | 0.692 | 0.644 | 0.604 | 0.547 | 0.517 | 0.472
10 µM, coculture fibroblast: WS1 | 0.7412 | 0.666 | 0.571 | 0.535 | 0.471 | 0.435 | 0.392 | 0.383 | 0.362
100 µM, coculture fibroblast: C12385 | 0.75958 | 0.725 | 0.651 | 0.615 | 0.554 | 0.551 | 0.513 | 0.505 | 0.487
100 µM, coculture fibroblast: H6013 | 0.894 | 0.806 | 0.739 | 0.659 | 0.553 | 0.52 | 0.475 | 0.456 | 0.4202
100 µM, coculture fibroblast: H6019 | 0.809 | 0.733 | 0.602 | 0.54 | 0.494 | 0.495 | 0.46 | 0.488 | 0.48
100 µM, coculture fibroblast: H6076 | 0.885 | 0.782 | 0.693 | 0.628 | 0.561 | 0.519 | 0.509 | 0.526 | 0.533
100 µM, coculture fibroblast: H6231 | 0.903 | 0.83 | 0.777 | 0.731 | 0.663 | 0.635 | 0.584 | 0.57 | 0.535
100 µM, coculture fibroblast: HADF | 0.8737 | 0.81 | 0.764 | 0.678 | 0.616 | 0.597 | 0.553 | 0.535 | 0.484
100 µM, coculture fibroblast: HCFa | 0.905 | 0.817 | 0.761 | 0.668 | 0.58 | 0.533 | 0.4917 | 0.47 | 0.427
100 µM, coculture fibroblast: HCPF | 0.882 | 0.778 | 0.693 | 0.641 | 0.549 | 0.497 | 0.442 | 0.411 | 0.385
100 µM, coculture fibroblast: HHSteC | 0.921 | 0.879 | 0.836 | 0.764 | 0.71 | 0.682 | 0.638 | 0.595 | 0.555
100 µM, coculture fibroblast: HMF | 0.879 | 0.776 | 0.695 | 0.644 | 0.575 | 0.534 | 0.473 | 0.457 | 0.436
100 µM, coculture fibroblast: HPFa | 0.94 | 0.88 | 0.802 | 0.71 | 0.654 | 0.602 | 0.54 | 0.515 | 0.467
100 µM, coculture fibroblast: HUF | 0.8211 | 0.727 | 0.7043 | 0.6 | 0.551 | 0.544 | 0.517 | 0.53 | 0.527
100 µM, coculture fibroblast: Hs5 | 0.8632 | 0.77736 | 0.7351 | 0.682 | 0.625 | 0.559 | 0.544 | 0.541 | 0.546
100 µM, coculture fibroblast: Hs27A | 0.8713 | 0.792 | 0.747 | 0.691 | 0.624 | 0.583 | 0.587 | 0.566 | 0.522
100 µM, coculture fibroblast: Hs343T | 0.887 | 0.763 | 0.701 | 0.658 | 0.58 | 0.516 | 0.447 | 0.423 | 0.39
100 µM, coculture fibroblast: WS1 | 0.739 | 0.666 | 0.569 | 0.498 | 0.436 | 0.408 | 0.361 | 0.358 | 0.336

Reference: the supplement of paper PMC6078165
